Source: patent publication US8563746B2, “Cyclic benzimidazole derivatives useful as anti-diabetic agents” (Merck Sharp & Dohme Corp, priority 2008, dated 2013)
Some entries share one result that the patent states for a list of compounds.

Chains of the proteins cited; added tags and fusions are not shown. Lines headed by an entry give the natural chain unless they say otherwise; changes in a name come on top.
UniProt Q13131: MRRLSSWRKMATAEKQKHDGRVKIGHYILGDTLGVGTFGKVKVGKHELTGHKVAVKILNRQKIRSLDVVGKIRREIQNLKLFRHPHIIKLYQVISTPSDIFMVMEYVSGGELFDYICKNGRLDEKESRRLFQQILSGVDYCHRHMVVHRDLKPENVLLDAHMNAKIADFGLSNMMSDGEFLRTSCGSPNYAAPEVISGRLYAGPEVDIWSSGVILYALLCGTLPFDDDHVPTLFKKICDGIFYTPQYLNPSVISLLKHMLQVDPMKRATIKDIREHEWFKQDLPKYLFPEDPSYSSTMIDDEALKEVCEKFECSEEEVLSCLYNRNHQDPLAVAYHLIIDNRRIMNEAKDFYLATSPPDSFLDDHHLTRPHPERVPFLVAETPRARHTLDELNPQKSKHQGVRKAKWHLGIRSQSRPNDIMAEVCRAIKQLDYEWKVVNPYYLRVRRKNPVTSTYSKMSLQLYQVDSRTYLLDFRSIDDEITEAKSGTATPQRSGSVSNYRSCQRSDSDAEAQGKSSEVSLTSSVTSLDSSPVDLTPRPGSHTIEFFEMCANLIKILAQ
UniProt Q9Y478: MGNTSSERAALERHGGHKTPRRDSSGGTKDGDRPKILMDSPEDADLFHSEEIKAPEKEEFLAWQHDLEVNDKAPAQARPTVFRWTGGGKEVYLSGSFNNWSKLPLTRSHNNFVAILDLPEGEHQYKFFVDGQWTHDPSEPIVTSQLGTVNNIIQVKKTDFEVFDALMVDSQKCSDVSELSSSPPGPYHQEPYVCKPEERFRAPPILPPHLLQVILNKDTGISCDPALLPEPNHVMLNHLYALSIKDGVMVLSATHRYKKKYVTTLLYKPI

Target: recombinant human AMPK complex 1 (containing α1β1γ1) (Homo sapiens, UniProt Q13131+Q9Y478)
Test: In vitro AMPK activation assay ([…])
Type: biochemical
Settings: recombinant human AMPK complex 1 (α1β1γ1)
Description: The recombinant human AMPK complex 1 (containing α1β1γ1) was obtained from baculovirus expression system. Recombinant viruses were generated by cotransfection of AMPK/pBacPak9 clones with Baculogold baculovirus DNA (Pharmingen) in spodoptera frugiperda 21 cells according to the manufacturer's instructions. Each round of virus amplification was performed for 5 days in Grace's medium containing 10% serum. Virus that had been subjected to three rounds of amplification was used for all protein production procedures. To express the AMPK complex, sf21 cells were adapted to serum free medium (SF900 II, Invitrogen) by sequential dilution from serum containing stocks into SF900II medium and maintained in shaker flasks at 90 rpm at 27° C. The recombinant AMPK enzyme complex was produced by triple infection, one recombinant virus for each of the subunits, in sf21 cells under serum free conditions. Cells were infected in log phase, 1×10^6 cells/ml, at a multiplicity of infection of ˜5. Cells were harvested by centrifugation at 10,000×g for 15 minutes after 72 hours of infection with viruses. The insect cell pellet from 2 liters of culture was resuspended in 50 ml lysis buffer (20 mM Tris-HCl, 50 mM NaCl, 50 mM NaF, 30 mM Na PPi, 0.25 M sucrose, 10 mM ZnCl2, 2 mM DTT, 0.4 mg/ml digitonin) and subjected to two cycles of freeze-thaw lysis in a dry-ice ethanol bath. Insoluble material was removed by centrifugation at 10,000×g and the supernatant was fractionated with use of polyethylene glycol (PEG). The protein fraction precipitating between 2.5 and 6% PEG was used for further purification using a Blue-Sepharose step (Zhou et al, J. Clin. Invest. 108, 1167-1174, 2001).
The total in vitro AMPK activation assay volume is 50 μl in a 96-well plate. The reaction mixture contained 100 μM ATP (0.5 μCi ^33P-ATP per reaction), and 50 μM SAMS ([…]) in a buffer (20 mM HEPES, pH 7.0, 5 mM MgCl2, 0.01% Brij35). The reaction was initiated with addition of the enzyme. After 30-minute incubation at 30° C., the reaction was stopped by addition of 80 μl 1% H3PO4. Aliquots (100 μl) were transferred to 96-well MultiScreen plates (MAPHNOB50; Millipore Corp., Bedford, Mass., USA). The plate was washed three times with 1% H3PO4 followed by detection in a Top-count. The counts per minute from the basal activity (the reaction without activator) was subtracted from each well and the data were expressed as % maximum AMP activation followed by EC50 calculation.

| Compound | EC50 [µM] |
| --- | --- |
| N#Cc1ccccc1C#Cc1cc2nc(SCC(=O)O)[nH]c2cc1Cl [Example 20, [6-chloro-5-(2-cyano-phenyl-ethynyl)-1H-benzo-imidazol-2-ylsulfanyl]-acetic acid] | < 10 |
| O=C(O)CSc1nc2cc(C#CC3CCNCC3)c(Cl)cc2[nH]1 [Example 21, (6-chloro-5-piperidin-4-ylethynyl-1H-benzoimidazol-2-ylsulfanyl)-acetic acid] | < 10 |
| O=C(O)CSc1nc2cc(C#Cc3ccc(F)cc3)c(Cl)cc2[nH]1 [Example 22] | < 10 |
| O=C(O)CSc1nc2cc(C#Cc3cccc(F)c3)c(Cl)cc2[nH]1 [Example 23] | < 10 |
| O=C(O)CSc1nc2cc(C#Cc3ccc(F)cc3F)c(Cl)cc2[nH]1 [Example 24, [6-chloro-5-(2,4-difluoro-phenyl-ethynyl)-1H-benzoimidazol-2-ylsulfanyl]-acetic acid] | < 10 |
| O=C(O)CSc1nc2cc(C#Cc3ccncc3)c(Cl)cc2[nH]1 [Example 25, (6-chloro-5-pyridin-4-yl-ethynyl-1H-benzoimidazol-2-ylsulfanyl)-acetic acid] | < 10 |
| O=C(O)CSc1nc2cc(C#CCOc3ccccc3)c(Cl)cc2[nH]1 [Example 26, [6-chloro-5-(3-phenoxy-prop-1-ynyl)-1H-benzo-imidazol-2-yl-sulfanyl]-acetic acid] | < 10 |
| O=C(O)CSc1nc2cc(C#Cc3ccccc3F)c(Cl)cc2[nH]1 [Example 27] | < 10 |
| N#Cc1ccc(C#Cc2cc3nc(SCC(=O)O)[nH]c3cc2Cl)cc1 [Example 28, [6-chloro-5-(4-cyano-phenyl-elhynyl)-1H-benzoimidazol-2-ylsulfanyl]-acetic acid] | < 10 |
| O=C(O)CSc1nc2cc(C#Cc3cccc(O)c3)c(Cl)cc2[nH]1 [Example 29, [6-chloro-5-(3-hydroxyphenyl-ethynyl)-1H-benzoimidazol-2-ylsulfanyl]-acetic acid] | < 10 |
| Cc1ccccc1C#Cc1cc2nc(SCC(=O)O)[nH]c2cc1Cl [Example 30, (6-chloro-5-o-tolylethynyl-1H-benzo-imidazol-2-ylsulfanyl)-acetic acid] | < 10 |
| Cc1cccc(C#Cc2cc3nc(SCC(=O)O)[nH]c3cc2Cl)c1 [Example 31, (6-chloro-5-m-tolylethynyl-1H-benzoimidazol-2-ylsulfanyl)-acetic acid] | < 10 |
| COc1cccc(C#Cc2cc3nc(SCC(=O)O)[nH]c3cc2Cl)c1 [Example 32, [6-chloro-5-(3-methoxy-phenyl-ethynyl)-1H-benzoimidazol-2-ylsulfanyl]-acetic acid] | < 10 |
| O=C(O)CSc1nc2cc(C#Cc3ccc(Oc4ccccc4)cc3)c(Cl)cc2[nH]1 [Example 33, [6-Chloro-5-(4-phenoxy-phenylethynyl)-1H-benzoimidazol-2-ylsulfanyl]-acetic acid] | < 10 |
| O=C(O)CSc1nc2cc(C#Cc3ccc(-c4ccccc4)cc3)c(Cl)cc2[nH]1 [Example 34, (5-biphenyl-4-ylethynyl-6-chloro-1H-benzoimidazol-2-ylsulfanyl)-acetic acid] | < 10 |
| O=C(O)CSc1nc2cc(C#CC3CCCC3)c(Cl)cc2[nH]1 [Example 35, (6-chloro-5-cyclo-pentylethynyl-1H-benzo-imidazol-2-yl-sulfanyl)-acetic acid] | < 10 |
| CCc1ccc(C#Cc2cc3nc(SCC(=O)O)[nH]c3cc2Cl)cc1 [Example 36, [6-chloro-5-(4-ethyl-phenyl-ethynyl)-1H-benzo-imidazol-2-yl-sulfanyl]-acetic acid] | < 10 |
| COc1ccc2cc(C#Cc3cc4nc(SCC(=O)O)[nH]c4cc3Cl)ccc2c1 [Example 37, [6-chloro-5-(6-methoxy-naphthalen-2-yl-ethynyl)-1H-benzo-imidazol-2-yl-sulfanyl]-acetic acid] | < 10 |
| O=C(O)CSc1nc2cc(C#Cc3cccs3)c(Cl)cc2[nH]1 [Example 38, (6-chloro-5-thiophen-2-yl-ethynyl-1H-benzo-imidazol-2-yl-sulfanyl)-acetic acid] | < 10 |
